In all, about 580,000 compounds went through this assay and about 6,100 (1.1%) were called active. Inconclusive results, whose numbers are uncertain, are shown with a selection of clear calls. The call rests on the fitted dose curve; in most records, active means well fitted inhibition curve with a large enough effect; inconclusive means small, poorly fitted or top-dose-only effect, or another doubt; inactive means no such curve, though single readings can be large or run the other way. A potency beside an inconclusive call is a rough fit, not a confirmed value.
Each compound was assayed against Polyunsaturated fatty acid lipoxygenase ALOX12 (Homo sapiens) (UniProt P18054) (assay: Primary qHTS assay for inhibitors of human arachidonate 12S-lipoxygenase (ALOX12): Round 2). Details: purified 12hLO, xylenol orange hydroperoxide absorbance; activity change, negative = inhibition: at 108 µM (top of the series) unless noted.
Procedure, shortened: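 Purified human 12hLO (150 nM final) in 25 mM Hepes, 0.01% Triton X-100, pH 7.0 was preincubated 15 min at room temperature with compound. Then 40 uM arachidonic acid was added, 30 min. Hydroperoxide was read by Fe-XO absorbance ratio 573/405 nm.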
On the % scale 0 is the no-effect control and ±100 the full control effect; potency means the concentration at half of the fitted maximal effect.

Amino acid sequences for entries named in this document (tags omitted). A change or cut given only in a name is not applied to a line headed by its entry.
UniProt P18054: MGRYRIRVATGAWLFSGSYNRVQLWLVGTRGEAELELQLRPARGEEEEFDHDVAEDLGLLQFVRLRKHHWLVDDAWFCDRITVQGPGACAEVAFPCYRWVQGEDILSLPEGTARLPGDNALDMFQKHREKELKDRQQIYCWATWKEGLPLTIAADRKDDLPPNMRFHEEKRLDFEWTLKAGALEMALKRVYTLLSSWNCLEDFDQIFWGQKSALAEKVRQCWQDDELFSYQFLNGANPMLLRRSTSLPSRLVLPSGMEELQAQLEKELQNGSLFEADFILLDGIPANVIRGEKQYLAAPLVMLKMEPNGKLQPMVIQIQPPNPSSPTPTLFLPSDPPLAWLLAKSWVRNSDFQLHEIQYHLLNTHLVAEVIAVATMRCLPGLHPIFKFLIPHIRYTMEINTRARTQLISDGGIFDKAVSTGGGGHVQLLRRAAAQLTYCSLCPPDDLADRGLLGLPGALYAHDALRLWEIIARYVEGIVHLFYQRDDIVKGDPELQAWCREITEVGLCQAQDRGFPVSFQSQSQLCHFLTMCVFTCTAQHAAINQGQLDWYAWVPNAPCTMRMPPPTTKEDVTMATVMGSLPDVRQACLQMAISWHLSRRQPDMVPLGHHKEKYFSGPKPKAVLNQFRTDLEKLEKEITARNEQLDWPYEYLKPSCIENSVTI

Row | Compound | activity change, negative = inhibition | Potency
1 | S=c1[nH]nc(-c2cccnc2)n1C1CCCCC1 | inactive: -17.5% | –
2 | Cc1nn(CC(O)COc2ccc3c(c2)CCC3)c(C)c1C (stereo unspecified) | – | inconclusive: 112 µM [inhibitor, single point]
3 | Cc1cc(-n2c(C)cc(C(=O)CCl)c2C)no1 | inactive: -19% | –
4 | CCc1nc2c(OCc3ccc(F)c(F)c3)cccn2c1N(C)C(=O)c1cccs1 | – | inconclusive: 0.794 µM [inhibitor, full curve, poor fit]
5 | COc1ccc(CN[C@@H]2CCC[C@@H](C(=O)NCc3cc(F)cc(F)c3)CC(=O)N(C)C2)cc1 | – | inconclusive: 20 µM [inhibitor, full curve, poor fit]
6 | COCC(=O)NC[C@H]1CCN(Cc2cccc(Cl)c2)C[C@H]1N(C)C | inactive: 32.9% | –
7 | O=C1N/C(=N/Nc2ccccc2)S/C1=C\c1ccccc1 | – | active: 5.62 µM
8 | CN(CC(=O)NC(C)(C)C)Cc1ccc(C#N)cc1 | inactive: 49% | –
9 | CC(=O)Nc1ccc(/C(C)=N\OCC(=O)NC(C)C(C)C)cc1 (stereo unspecified) | inactive: -5.45% | –
10 | COc1ccc(S(=O)(=O)NC[C@H]2O[C@@H](CO)[C@@H](O)[C@H]2N2CCN(C)CC2)cc1 | – | inconclusive: 14.1 µM [inhibitor, full curve]
11 | COc1ccc(OC)c(-n2c(=S)[nH]c3cc(C(=O)NCCCN4CCCC4=O)ccc3c2=O)c1 | – | inconclusive: 2.24 µM [inhibitor, full curve]
12 | COc1ccccc1C(CNC(=O)c1cccc(S(=O)(=O)Nc2ccc(F)cc2)c1)N1CCCC1 (stereo unspecified) | – | inconclusive: 112 µM [inhibitor, single point]
13 | O=C(O)c1ccc(C2C(c3ccccc3)=C(O)C(=O)N2c2ccc(Cl)cc2)cc1 (stereo unspecified) | – | inconclusive: 89.1 µM [inhibitor, single point]
14 | CCC(C)NC(=O)CSc1ccc(NC(C)=O)cc1 (stereo unspecified) | inactive: 64.2% | –
15 | CC(=O)OCC1=C(C(=O)O)N2C(=O)[C@@H](NC(=O)Cc3cccs3)[C@H]2SC1 | – | inconclusive: 56.2 µM [inhibitor, partial curve, poor fit]
16 | CCNC(=O)C(C)NC(=O)c1cc2ccccc2oc1=O (stereo unspecified) | inactive: 9.92% | –
17 | C/C=C(/C)C(=O)Nc1cccc(C2=NOC3(C2)C[C@H](C(N)=O)N(C(=O)COc2ccc(Cl)cc2)C3)c1 (stereo partly specified) | – | inconclusive: 89.1 µM [inhibitor, partial curve, poor fit]
18 | O=C1Nc2ccccc2N(O)N1c1cc(-c2ccccc2Cl)no1 | – | inconclusive: 5.62 µM [inhibitor, full curve, poor fit]
19 | CCc1ccc(Nc2n[n+](-c3ccccc3)c(-c3ccc(N(CC)CC)cc3)s2)cc1 | – | active: 39.8 µM
20 | O=C(CCSCc1cccc(Cl)c1)NCc1ccc(F)cc1Cl | – | inconclusive: 89.1 µM [inhibitor, partial curve, poor fit]
21 | Cc1ccc(C2CCN(C(=S)Nc3cccc(C)c3)C2)cc1 (stereo unspecified) | – | inconclusive: 50.1 µM [inhibitor, partial curve, poor fit]

Two of these compounds in a different format.
Row	Compound	activity change, negative = inhibition	Potency
9	CC(=O)Nc1ccc(/C(C)=N\OCC(=O)NC(C)C(C)C)cc1 (stereo unspecified)	inactive: -5.45%	–
10	COc1ccc(S(=O)(=O)NC[C@H]2O[C@@H](CO)[C@@H](O)[C@H]2N2CCN(C)CC2)cc1	–	inconclusive: 14.1 µM [inhibitor, full curve]

Later entries:

Row | Compound | activity change, negative = inhibition | Potency
22 | COc1cccc(N(C(=O)c2ccco2)C(C(=O)NC2CCCC2)c2ccc(N(C)C)cc2)c1 (stereo unspecified) | inactive: 22.3% | –
23 | CCOC(=O)c1c(C)[nH]c(C(=O)COC(=O)C(C)Oc2ccc(Cl)cc2Cl)c1C (stereo unspecified) | – | inconclusive: 63.1 µM [inhibitor, partial curve, poor fit]
24 | O=C(O)c1ccc(-n2cccc2/C=C2/NC(=O)N(c3cccc(Cl)c3)C2=O)cc1 | – | inconclusive: 79.4 µM [inhibitor, partial curve, poor fit]
25 | COc1cccc(-c2oc3c(c2-c2ccc(OC)nc2)C(O)CCC3)c1 (stereo unspecified) | – | inconclusive: 89.1 µM [inhibitor, single point]
26 | COc1ccc(C(=O)N2CCN(C(=O)c3nnn4c3COC(c3ccccc3)C4)CC2)cc1F (stereo unspecified) | inactive: 23.7% | –
27 | CCc1nc(Nc2ccc(NC(C)=O)cc2)c2oc3ccccc3c2n1 | – | inconclusive: 63.1 µM [inhibitor, partial curve, poor fit]
28 | COCCn1c(SCC(=O)Nc2sc(C)c(C)c2C#N)nnc1C(C)C | inactive: 0% | –
29 | O=C(C[C@@H]1C/C=C\CC[C@@H](Cc2ccc(F)cc2)C(=O)OC[C@@H]2CCCN2C1=O)N[C@H](CO)Cc1ccccc1 | – | inconclusive: 35.5 µM [inhibitor, single point]
30 | CCC1(C)OC(=O)N(CCCn2ccnc2C)C1(C)O (stereo unspecified) | inactive: 0% | –
31 | O=C(NCc1cccnc1)[C@@H]1C[C@@H](c2ccc(F)cc2)N(Cc2ccccc2)C1 | – | inconclusive: 44.7 µM [inhibitor, full curve, poor fit]
32 | O=C(O)CCCCN1C(=O)/C(=C\c2ccc(OCc3ccccc3)c(OCc3ccccc3)c2)SC1=S | inactive: 0% | –
33 | Cc1ccc([C@H]2C[C@H](n3cc(-c4ccc(F)cc4)nn3)[C@@H](O)CN2C(=O)c2cccs2)cc1 | – | inconclusive: 70.8 µM [inhibitor, single point]
34 | C(=N\c1nccs1)/Nc1nccs1 | – | inconclusive: 100 µM [inhibitor, single point]
35 | O=C(O)c1ccc2c(c1)C1C=CCC1C(c1cc3c(cc1Br)OCO3)N2 (stereo unspecified) | – | inconclusive: 89.1 µM [inhibitor, single point]
36 | Cc1cc(NC(=O)c2cnc3ccccc3n2)ccc1N1CCN(C)CC1 | – | inconclusive: 31.6 µM [inhibitor, partial curve, poor fit]
37 | CCN1CCN(c2nc3ccccc3nc2C(C#N)C(=O)OC2CCCCC2)CC1 (stereo unspecified) | – | inconclusive: 79.4 µM [inhibitor, single point]
38 | OC(c1ccccc1)(c1ccccc1)C1CCN(CCCOc2ccccc2Cl)CC1 | – | inconclusive: 44.7 µM [inhibitor, partial curve, poor fit]
39 | C[C@H](CO)N1C[C@H](C)[C@@H](CN(C)Cc2ccc(C(=O)O)cc2)Oc2ccc(NC(=O)Cn3cnnn3)cc2C1=O | – | inconclusive: 44.7 µM [inhibitor, single point]
40 | Cc1ccccc1CN1C[C@@H]2[C@H](C1)N(Cc1ccccc1)C(=O)C(C)(C)[S+]2(=O)[O-] | inactive: 3.61% [at 176 µM] | –
41 | COC(=O)c1cc[n+](CC(=O)c2ccccc2)cc1 | – | inconclusive: 31.6 µM [inhibitor, partial curve, poor fit]
